No constants are given. Whether binding was seen depends on the method and setting. Binding seen in cells or lysates may run through a third protein. Some entries that bind do so weakly or less than the wild type. For some assays here: Sequences can lack the tags named with a protein.
Key:
Sgo1-TAP (S. cerevisiae) = target: T1, Sgo1-TAP (S. cerevisiae) (UniProt Q08490); test: co-IP; Sgo1-TAP captured on rabbit IgG Dynabeads from benzonase-treated lysates of cycling cells grown at room temperature (wild type, siz1Δ siz2Δ, pCUP1-SIZ2, sgo1-4R, sgo1-3A); Rts1-9Myc by anti-Myc blot, Sgo1-TAP by PAP
T1 sequence: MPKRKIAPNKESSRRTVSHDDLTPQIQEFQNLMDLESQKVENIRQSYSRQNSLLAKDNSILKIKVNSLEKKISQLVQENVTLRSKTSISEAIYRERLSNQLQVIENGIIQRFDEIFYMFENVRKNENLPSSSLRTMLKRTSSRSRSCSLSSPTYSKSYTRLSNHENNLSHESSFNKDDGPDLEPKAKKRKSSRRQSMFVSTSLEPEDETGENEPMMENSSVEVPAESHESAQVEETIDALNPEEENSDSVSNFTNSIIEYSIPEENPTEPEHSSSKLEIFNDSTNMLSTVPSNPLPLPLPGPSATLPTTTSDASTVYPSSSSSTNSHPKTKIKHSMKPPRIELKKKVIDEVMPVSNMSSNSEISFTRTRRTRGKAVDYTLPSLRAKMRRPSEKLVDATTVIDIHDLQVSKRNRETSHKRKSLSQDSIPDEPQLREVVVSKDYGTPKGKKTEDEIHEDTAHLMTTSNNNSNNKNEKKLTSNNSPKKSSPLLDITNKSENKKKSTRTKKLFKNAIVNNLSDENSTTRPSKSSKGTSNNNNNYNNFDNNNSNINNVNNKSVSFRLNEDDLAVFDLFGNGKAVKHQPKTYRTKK

Chains of the proteins cited; added tags and fusions are not shown.
UniProt P38903: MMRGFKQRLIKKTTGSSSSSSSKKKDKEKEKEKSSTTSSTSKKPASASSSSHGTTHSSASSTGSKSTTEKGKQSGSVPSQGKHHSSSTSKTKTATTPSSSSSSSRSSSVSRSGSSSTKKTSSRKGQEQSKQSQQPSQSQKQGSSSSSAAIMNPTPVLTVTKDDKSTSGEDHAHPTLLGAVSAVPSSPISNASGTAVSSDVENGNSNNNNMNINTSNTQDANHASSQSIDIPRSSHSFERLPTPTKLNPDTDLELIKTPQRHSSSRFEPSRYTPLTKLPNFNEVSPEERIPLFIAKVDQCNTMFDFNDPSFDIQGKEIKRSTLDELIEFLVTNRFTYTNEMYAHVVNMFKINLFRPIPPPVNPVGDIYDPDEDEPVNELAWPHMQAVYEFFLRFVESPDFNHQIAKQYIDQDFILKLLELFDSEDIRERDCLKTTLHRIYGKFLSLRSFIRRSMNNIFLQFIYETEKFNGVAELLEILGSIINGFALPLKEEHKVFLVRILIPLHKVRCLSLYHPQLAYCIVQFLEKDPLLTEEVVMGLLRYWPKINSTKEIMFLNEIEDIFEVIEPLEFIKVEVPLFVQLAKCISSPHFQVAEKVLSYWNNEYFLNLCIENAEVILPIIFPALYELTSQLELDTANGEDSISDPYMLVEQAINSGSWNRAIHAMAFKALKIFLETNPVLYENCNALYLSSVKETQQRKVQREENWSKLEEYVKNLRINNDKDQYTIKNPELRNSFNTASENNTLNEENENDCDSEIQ

[1] = target: T2, recombinant Hisx7-V5-tagged Sgo1, unSUMOylated (S. cerevisiae) (UniProt Q08490); test: pull-down; product of in vitro SUMOylation (+ATP) or unmodified control (-ATP) of V5-Sgo1 held on anti-V5 Protein G Dynabeads, washed, incubated 2 h at 4°C with extract of sgo1Δ RTS1-9MYC yeast; binding buffer A (25 mM Hepes pH 7.5, 150 mM KCl, 2 mM MgCl2, 15% glycerol, 0.1% NP-40); anti-V5 and anti-Myc blots; only the target purified
T2 sequence: T1 sequence

binding (Sgo1-TAP (S. cerevisiae)): binds
binding [1]: binds
Substance: Rts1-9Myc (from UniProt P38903 1-757)

Source: publication PMC8094117
